Source: the supplement of paper PMC3334620
Over roughly 33,000 sequences, “E-score (-0.5 to 0.5)” has its median near -0.015; the highest 2% begin near 0.3. This is one part of the list.

These sequences were tested against T1, Abf1 (UniProt P14164) (assay: PBM E-score (8-mer binding enrichment) (E-score (-0.5 to 0.5)); higher = stronger / more preferred TF binding). Conditions: protein concentration: 200 nM; construct: GST-full length.
T1 sequence: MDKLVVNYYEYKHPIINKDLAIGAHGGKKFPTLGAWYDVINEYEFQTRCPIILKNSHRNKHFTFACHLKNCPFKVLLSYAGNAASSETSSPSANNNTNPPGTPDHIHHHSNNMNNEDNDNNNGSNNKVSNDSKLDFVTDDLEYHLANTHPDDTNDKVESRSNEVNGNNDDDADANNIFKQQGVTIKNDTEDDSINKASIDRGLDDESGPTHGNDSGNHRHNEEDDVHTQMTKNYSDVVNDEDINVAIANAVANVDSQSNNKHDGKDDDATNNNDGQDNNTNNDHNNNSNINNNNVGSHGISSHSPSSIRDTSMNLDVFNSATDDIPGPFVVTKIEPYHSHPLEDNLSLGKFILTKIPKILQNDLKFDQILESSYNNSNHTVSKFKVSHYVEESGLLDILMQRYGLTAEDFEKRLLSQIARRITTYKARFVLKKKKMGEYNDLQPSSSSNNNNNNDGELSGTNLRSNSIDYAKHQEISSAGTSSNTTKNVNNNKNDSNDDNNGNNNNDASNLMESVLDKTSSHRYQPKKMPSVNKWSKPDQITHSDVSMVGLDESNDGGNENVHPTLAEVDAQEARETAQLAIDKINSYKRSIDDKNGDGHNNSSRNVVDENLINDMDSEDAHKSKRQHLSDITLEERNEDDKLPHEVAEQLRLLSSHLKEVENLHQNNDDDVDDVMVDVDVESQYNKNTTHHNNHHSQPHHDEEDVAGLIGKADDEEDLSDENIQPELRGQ
In short: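 Universal all-10-mer Agilent arrays, fresh or stripped once, were converted to double-stranded form by primer extension. GST-tagged yeast transcription factors from PURExpress in vitro transcription/translation, full-length or DNA-binding domain only, were applied at about 100-200 nM and detected with fluorescent anti-GST. After masliner normalisation, the Universal PBM Analysis Suite scored each ungapped eight-base word together with its reverse complement by E-score.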

Sequence	PBM E-score
CTTCAGTA	-0.0213
CTGCAGCA	-0.115
CGCCGCCC	-0.239
CAGGCAAG	-0.0923
GGGTCTAC	-0.174
CTGTTAGA	-0.00358
GGATAGCA	0.118
CTTCCTAC	-0.154
GGTCAGGA	-0.113
ATAGTGTG	-0.0346
GAACCAGC	0.00057
GCACCTGC	-0.119
CTAACTTA	0.038
ACCTAAAT	0.16
CACGGATC	0.0691
ACTAAGCG	0.0128
ATCGCAGA	-1e-05
GACTACAC	-0.0203
AATGATAG	0.229
ATCGTTTG	0.298
GCCAAAGC	-0.222
ACCCTAAC	-0.0596
GTGAGTGA	0.154
AAAGCCAT	-0.0213
CGCATTCC	-0.271

Sequence	PBM E-score
ATCTCAGC	0.109
TACCGACA	0.0784
AAATGGTC	-0.0951
CGTGCCCA	-0.0605
TACGGAAA	0.112
AACATCAG	0.0871
CACGGCAA	0.219
CACAGGGC	-0.0418
CAGACGGG	0.0358
AGGATTGC	-0.175
AAATCCCG	-0.143
TGATTGCA	-0.0155
ACCCGCAC	-0.0741
CAGGGATC	-0.0917
GACAAATA	0.181
AGGACTCG	-0.0691
CCCCACGC	-0.227
ATGAGCCA	-0.207
CGCCGCTC	-0.0305
ATGATATC	0.362
AAGCCCGA	-0.152
CGTCTAGC	0.13
AATAAGAC	0.0262
CCCGCCTA	-0.0972
GGATTAAC	0.0444

Sequence	PBM E-score
ACACAATC	0.0301
ATCGACCA	-0.158
CGAGAATC	0.0268
ACGTTGAA	0.198
ATGCAACC	0.0863
GCTACAAA	0.0774
TGTCAGAA	-0.0788
AAGTTCGG	-0.0363
AAGAGATG	0.00226
CTGGACCA	-0.204
CACTATTC	0.184
AAGGATGA	0.194
CATGCACG	0.0738
ATCGGCTC	-0.131
ACTTCGAG	-0.124
GGTGCCAA	0.00901
ACACTTGG	-0.047
AGAATTCC	0.0725
GACCTTGA	-0.0527
AGACGTTA	-0.00034
AGGTAGGG	-0.168
AAACATCA	0.194
AGGAGCAA	-0.0973
AGTATGCC	-0.0156
CATGGATC	-0.111

5 entries from above in another layout:
Sequence | PBM E-score
GGTCAGGA | -0.113
ATAGTGTG | -0.0346
GAACCAGC | 0.00057
GCACCTGC | -0.119
CTAACTTA | 0.038

The results go on.

Sequence	PBM E-score
CTAGCTCA	-0.198
GATAGTTA	0.223
AATTCGAA	-0.0114
CTGGTCGA	-0.26
GCACATAC	-0.275
ACGTCTCA	0.248
ACGGTTTC	0.0478
CCGCAAAG	-0.106
GCCCGATA	-0.0903
CACGTGAG	-0.0359
AATGCGAT	0.128
ACAGACGA	0.236
AATCCAGG	0.0662
CGTAGTAA	0.207
AAGATATG	0.283
GAAGGCAA	-0.165
CCAAAGGC	0.00611
ACCTAGCA	-0.12
TCCGAGCA	-0.0191
CCGTCACG	0.04
ACGTCAGC	-0.0336
AGCCAATC	0.0251
GCTATGAC	0.0492
AGGGCCAA	-0.321
GAGTGGAA	-0.182

Looked up one by one from above, three records:
Sequence	PBM E-score
AAAGCCAT	-0.0213
AAGTTCGG	-0.0363
CCGTCACG	0.04

Going on with the list.

Sequence	PBM E-score
AGCATGGA	-0.21
AGCGACAG	0.172
CAAAATAG	-0.142
TGAATACA	-0.00315
AAAAGTCT	0.0544
CATCAAGA	0.0429
AACGTAAC	0.132
CAGGGCAA	-0.19
AGTCAACA	-0.109
GGGGGCAA	-0.0502
ACTCCCTG	-0.273
CAGACCTC	0.00051
AAGTCGTA	0.163
ATATATCG	0.244
CCTATAAC	-0.117
CCGAGTAC	-0.0732
TACGGCGA	0.313
GTACAATA	0.242
GGCGGCGA	-0.223
AGAGCATC	-0.0958
GGCGCTCA	0.0329
CTAACAGA	0.133
ACTTGGCT	-0.255
AGCTATTC	-0.0512
CACCCGAG	-0.157

Sequence	PBM E-score
ATGCAGTC	0.0059
ACAACAAT	0.0693
GATCTCCC	-0.029
AGAAGCCG	-0.117
CCCAAGAG	-0.0637
AGGGCACC	-0.266
AATAAAGG	-0.155
TGAGTTAA	0.0647
AGCTCCTG	-0.189
GGTGAAAA	0.124
CGCAGAGA	-0.0553
AATAAATA	0.32
GTGGTGTA	-0.0517
AGCGACTC	0.0163
GCTAGTCA	0.0156
AAAGATAC	0.134
AATCACCC	0.195
GCTGTAAC	0.0262
AGAGGGGC	-0.24
AAGGTCGC	0.0476
ACAGATCT	-0.0985
CTATTCAG	0.0697
AAGGCAAC	-0.144
CAGATTTA	0.00418
ACGGGACA	0.0901

Sequence	PBM E-score
ACCGCCTC	-0.183
ATATATCA	0.311
AAGATCCT	0.0788
GCCCAAGA	-0.0151
AATTGAGG	-0.0502
ATGCCAGA	-0.0116
CGGGCGCC	-0.053
AGTTGGCC	-0.163
GCTTCCAC	-0.0734
ACCAAACT	0.00058
ACCATGAA	0.037
GTGCATAA	0.0588
GTGGTCCA	0.0315
TTAAAGAA	-0.0564
TAAGGGAA	0.0347
CATCCGGC	-0.223
CATTCAAC	0.0639
ATTAGATG	0.227
AGTAACTA	0.108
CAAATAAG	-0.11
CCTCGGCC	-0.128
ACACCCAC	-0.12
